Data from PubChem BioAssay AID504834 (National Center for Advancing Translational Sciences (NCATS), 2011).
About 22,000 (6.9%) of roughly 320,000 compounds were called active. This list was built around the results that the source calls inconclusive (neither active nor inactive); the mix of calls is not that of the screen. The call rests on the fitted dose curve; in most records, active means well fitted inhibition curve with a large enough effect; inconclusive means small, poorly fitted or top-dose-only effect, or another doubt; inactive means no such curve, though single readings can be large or run the other way. A potency beside an inconclusive call is a rough fit, not a confirmed value.

Experiment: Primary qHTS for delayed death inhibitors of the malarial parasite plastid, 96 hour incubation
Conditions: P. falciparum luciferase reporter growth; series mostly up to 28.7 µM; activity change, negative = inhibition: at the top concentration
Summary of the method: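 Delayed-death screen, second-generation endpoint: infected erythrocytes, 2% hematocrit, 0.05% parasitemia final; 96 hours at 37 C, 5% CO2; luciferase detection reagent; luminescence decrease equals reduced growth.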
On the % scale 0 is the no-effect control and ±100 the full control effect; potency means the concentration at half of the fitted maximal effect.

SMILES | Potency | activity change, negative = inhibition
COc1ccc(N(C(=O)c2snc(C(N)=O)c2N)C(C(=O)NCc2ccc(F)cc2)c2ccc(O)cc2)cc1 (stereo not given) | inconclusive: 10.4 µM [inhibitor, single point] | –
C=CCN1C(=O)C2C(C(=O)NC3CCCC3)C3(C)C=CC2(O3)C1C(=O)NC1CCCC1 (stereo not given) | – | inactive: -8.22%
CCOC(=O)C1=C(CN2CCN(C(=O)c3ccco3)CC2)NC(=O)NC1c1ccc(OC(C)C)cc1 (stereo not given) | inconclusive: 11.7 µM [inhibitor, partial curve, poor fit] | –
COc1ccc(N(CC(=O)Nc2ccc(S(=O)(=O)N3CCCCC3)cc2)S(C)(=O)=O)cc1OC | inconclusive: 11.7 µM [inhibitor, single point] | –
COc1ccc(CC(=O)NCc2ccccc2)cc1OC | inconclusive: 18.5 µM [inhibitor, single point] | –
CCn1c(SCC(=O)N2CCCCC2)nc(O)cc1=O | inconclusive: 0.0465 µM [inhibitor, full curve, poor fit] | –
CCn1c(Cc2ccccc2)nnc1SCC(=O)Nc1ccc2c(c1)OCO2 | inconclusive: 4.15 µM [inhibitor, single point] | –
COc1cc2c(cc1OC)CN(C(=O)CC1CC3CCC1C3)CC2 (stereo not given) | active: 2.62 µM | –
N#Cc1ccc(C(=O)NCC(c2ccco2)N2CCCC2)cc1 (stereo not given) | inconclusive: 18.5 µM [inhibitor, single point] | –
COc1cccc(NC(=O)N2CCC(C(=O)Nc3ccc(C)cc3C)CC2)c1 | – | inactive: 18.4%
Cc1cc(C)n2ncc(/C(N)=N/OC(=O)Nc3ccccc3)c2n1 | inconclusive: 0.928 µM [inhibitor, full curve, poor fit] | –
COc1ccc(C(=O)Nc2ccc(NC(=O)C(C)C)nc2)cc1 | inconclusive: 0.329 µM [inhibitor, full curve, poor fit] | –
CC1Cc2ccccc2N1C(=O)CN1CCC(C(N)=O)CC1 (stereo not given) | – | inactive: -14.5%
OC(c1ccccc1)(c1ccccc1)C1CCN(C(=S)NCCc2ccccc2)CC1 | inconclusive: 10.4 µM [inhibitor, single point] | –
c1ccc(-c2nnc(-c3ccccn3)s2)nc1 | – | inactive: 197%
COc1cc(Nc2c3c(nc4ccccc24)CCC3)cc(OC)c1OC | – | inactive: 4.66%
COc1cc(NC(=S)N2CCN(S(=O)(=O)c3ccc(F)cc3)CC2)cc(OC)c1 | – | inactive: -26.6%
COc1ccc(-c2cc(C(F)(F)F)nc(SCCC(=O)NCc3ccco3)n2)cc1 | inconclusive: 14.7 µM [inhibitor, single point] | –
O=C(C1CC1)N1c2ccccc2Sc2ccccc21 | – | inactive: 26.2%
CCN(CC)CC(=O)Nc1sc(C)cc1C(=O)c1ccccc1 | – | inactive: -12.3%

2 entries drawn at random from those above, as already listed:
SMILES | Potency | activity change, negative = inhibition
COc1cc2c(cc1OC)CN(C(=O)CC1CC3CCC1C3)CC2 (stereo not given) | active: 2.62 µM | –
CCOC(=O)C1=C(CN2CCN(C(=O)c3ccco3)CC2)NC(=O)NC1c1ccc(OC(C)C)cc1 (stereo not given) | inconclusive: 11.7 µM [inhibitor, partial curve, poor fit] | –
